Assay results published in publication PMC6451337, “The Toxoplasma gondii dense granule protein TgGRA3 interacts with host Golgi and dysregulates anterograde transport” (Biology Open, 2019).
No constants are given. Whether binding was seen depends on the method and setting. Binding seen in cells or lysates may run through a third protein. For some of these results: A result given as binding can be weak or reduced; the word gives no strength. For some of these results: Where a sequence is shown, tags or fusion partners need not be part of it.

How the values were obtained:
[1] = target: T1, GST-GRA3_(43-161) (Toxoplasma gondii) (UniProt B6KEU8); assay: pull-down; 60 μg of recombinant GST protein bound to glutathione-Sepharose beads, incubated with pre-cleared lysate of GRA23_3×HA parasites in buffer B for 1 h at room temperature; anti-HA immunoblot; only the target purified
T1 sequence: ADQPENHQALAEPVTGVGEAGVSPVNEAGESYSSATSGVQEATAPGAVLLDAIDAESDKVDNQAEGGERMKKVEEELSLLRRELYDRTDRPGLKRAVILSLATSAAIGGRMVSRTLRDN

[2] = target: TgGRA23_3×HA (Toxoplasma gondii); assay: co-IP; lysate of 50×10^6 tachyzoites of the 3×HA knock-in strains in buffer B (10 mM HEPES pH 7.4, 1.5 mM MgCl2, 10 mM KCl, 0.5 mM DTT, 0.1 mM EDTA, 0.65% NP-40), anti-HA beads overnight at 4°C, immunoblot for TgGRA3
[3] = target: TgROP13_3×HA (Toxoplasma gondii); assay: as above
[4] = target: TgGRA23_3×HA (Toxoplasma gondii); assay: co-IP; HFF cells infected for 24 h, low-speed pellet (parasites) and high-speed pellet (PVM) suspended in buffer B as inputs; immunoprecipitation of TgGRA23_3×HA, immunoblot for TgGRA3

TgGRA23_3×HA (Toxoplasma gondii)
binding [1]: binds

B1: TgGRA3 (protein, UniProt B6KEU8 1-222)
chain: MDRTICPFFIQSFTMSTALKRLIPFLVPFVVFLVAAALGGLAADQPENHQALAEPVTGVGEAGVSPVNEAGESYSSATSGVQEATAPGAVLLDAIDAESDKVDNQAEGGERMKKVEEELSLLRRELYDRTDRPGLKRAVILSLATSAAIGGRMVSRTLRDNIPGYFVVINAILAAYYIRKVLTYRRRVMTKRQPFMSSVKNFFRRKPKDEGAGVDKASKKQT
binding [2]: binds | binding [3]: no binding | binding [4]: binds
